In publication PMC8889267:
These are yes or no findings as the source states them, for the method shown. Binding seen in cells or lysates may run through a third protein. A yes stands for co-enrichment or nearness to the bait. Other partners may have been found. Sequences can lack the tags named with a protein.

T1: CLPC1-TRAP-STREPII (Arabidopsis thaliana) (UniProt Q9FI56)
T1 sequence: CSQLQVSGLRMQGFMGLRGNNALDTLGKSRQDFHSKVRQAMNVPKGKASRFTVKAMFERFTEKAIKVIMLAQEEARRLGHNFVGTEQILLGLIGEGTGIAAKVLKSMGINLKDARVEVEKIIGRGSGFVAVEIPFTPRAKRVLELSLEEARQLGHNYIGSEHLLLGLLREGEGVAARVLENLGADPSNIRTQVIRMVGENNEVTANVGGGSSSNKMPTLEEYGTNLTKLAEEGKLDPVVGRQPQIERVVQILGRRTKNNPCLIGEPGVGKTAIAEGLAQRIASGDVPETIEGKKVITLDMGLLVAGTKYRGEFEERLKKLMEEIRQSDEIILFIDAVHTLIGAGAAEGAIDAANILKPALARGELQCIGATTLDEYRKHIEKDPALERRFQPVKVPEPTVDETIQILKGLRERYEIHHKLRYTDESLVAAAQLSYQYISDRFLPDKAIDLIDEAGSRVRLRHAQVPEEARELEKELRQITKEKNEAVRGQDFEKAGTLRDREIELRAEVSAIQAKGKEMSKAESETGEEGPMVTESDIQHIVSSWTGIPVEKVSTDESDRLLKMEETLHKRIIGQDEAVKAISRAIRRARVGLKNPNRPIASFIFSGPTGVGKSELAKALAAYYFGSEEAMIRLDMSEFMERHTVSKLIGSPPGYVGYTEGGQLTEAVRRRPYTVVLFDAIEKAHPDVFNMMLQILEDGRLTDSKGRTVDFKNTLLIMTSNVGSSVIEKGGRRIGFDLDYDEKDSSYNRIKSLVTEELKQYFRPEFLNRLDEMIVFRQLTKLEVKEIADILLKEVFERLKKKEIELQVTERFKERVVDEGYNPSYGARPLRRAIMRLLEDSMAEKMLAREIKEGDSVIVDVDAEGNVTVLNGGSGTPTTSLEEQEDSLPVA

B1: zeaxanthin epoxidase (ZEP) (protein, UniProt Q9FGC7 60-667)
chain: AATALVEKEEKREAVTEKKKKSRVLVAGGGIGGLVFALAAKKKGFDVLVFEKDLSAIRGEGKYRGPIQIQSNALAALEAIDIEVAEQVMEAGCITGDRINGLVDGISGTWYVKFDTFTPAASRGLPVTRVISRMTLQQILARAVGEDVIRNESNVVDFEDSGDKVTVVLENGQRYEGDLLVGADGIWSKVRNNLFGRSEATYSGYTCYTGIADFIPADIESVGYRVFLGHKQYFVSSDVGGGKMQWYAFHEEPAGGADAPNGMKKRLFEIFDGWCDNVLDLLHATEEEAILRRDIYDRSPGFTWGKGRVTLLGDSIHAMQPNMGQGGCMAIEDSFQLALELDEAWKQSVETTTPVDVVSSLKRYEESRRLRVAIIHAMARMAAIMASTYKAYLGVGLGPLSFLTKFRVPHPGRVGGRFFVDIAMPSMLDWVLGGNSEKLQGRPPSCRLTDKADDRLREWFEDDDALERTIKGEWYLIPHGDDCCVSETLCLTKDEDQPCIVGSEPDQDFPGMRIVIPSSQVSKMHARVIYKDGAFFLMDLRSEHGTYVTDNEGRRYRATPNFPARFRSSDIIEFGSDKKAAFRVKVIRKTPKSTRKNESNNDKLLQTA
B2: pyruvate kinase-2 (typically homotetramer) (protein, UniProt Q9FLW9 64-579)
chain: SARVETEVIPVSPEDVPNREEQLERLLEMQQFGDTSVGMWSKPTVRRKTKIVCTVGPSTNTREMIWKLAEAGMNVARMNMSHGDHASHKKVIDLVKEYNAQTKDNTIAIMLDTKGPEVRSGDLPQPIMLDPGQEFTFTIERGVSTPSCVSVNYDDFVNDVEAGDMLLVDGGMMSFMVKSKTKDSVKCEVVDGGELKSRRHLNVRGKSATLPSITEKDWEDIKFGVENKVDFYAVSFVKDAQVVHELKKYLQNSGADIHVIVKIESADSIPNLHSIITASDGAMVARGDLGAELPIEEVPILQEEIINLCRSMGKAVIVATNMLESMIVHPTPTRAEVSDIAIAVREGADAVMLSGETAHGKFPLKAAGVMHTVALRTEATITSGEMPPNLGQAFKNHMSEMFAYHATMMSNTLGTSTVVFTRTGFMAILLSHYRPSGTIYAFTNEKKIQQRLALYQGVCPIYMEFTDDAEETFANALATLLKQGMVKKGEEIAIVQSGTQPIWRSQSTHNIQVRKV
B3: glucose-6-phosphate dehydrogenase 2 (G6PD2) (protein, UniProt Q9FY99 60-596)
chain: VFMQDGAIVTNSNSSESKTSLKGLKDEVLSALSQEAAKVGVESDGQSQSTVSITVVGASGDLAKKKIFPALFALYYEGCLPEHFTIFGYSRSKMTDVELRNMVSKTLTCRIDKRANCGEKMEEFLKRCFYHSGQYDSQEHFTELDKKLKEHEAGRISNRLFYLSIPPNIFVDAVKCASTSASSVNGWTRVIVEKPFGRDSETSAALTKSLKQYLEEDQIFRIDHYLGKELVENLSVLRFSNLIFEPLWSRQYIRNVQFIFSEDFGTEGRGGYFDNYGIIRDIMQNHLLQILALFAMETPVSLDAEDIRNEKVKVLRSMRPIRVEDVVIGQYKSHTKGGVTYPAYTDDKTVPKGSLTPTFAAAALFIDNARWDGVPFLMKAGKALHTRSAEIRVQFRHVPGNLYNRNTGSDLDQATNELVIRVQPDEAIYLKINNKVPGLGMRLDRSNLNLLYSARYSKEIPDAYERLLLDAIEGERRLFIRSDELDAAWSLFTPLLKEIEEKKRIPEYYPYGSRGPVGAHYLAAKHKVQWGDVSIDQ
B4: fibrillin 1b (FBN1b) (protein, UniProt O49629 60-310)
chain: ATDTGEIGSALLAAEEAIEDVEETERLKRSLVDSLYGTDRGLSASSETRAEIGDLITQLESKNPTPAPTEALFLLNGKWILAYTSFVNLFPLLSRGIVPLIKVDEISQTIDSDNFTVQNSVRFAGPLGTNSISTNAKFEIRSPKRVQIKFEQGVIGTPQLTDSIEIPEYVEVLGQKIDLNPIRGLLTSVQDTASSVARTISSQPPLKFSLPADNAQSWLLTTYLDKDIRISRGDGGSVFVLIKEGSPLLNP
B5: Mg-protoporphyrin IX chelatase - CHLI-2 (protein, UniProt Q5XF33 56-418)
chain: VMNVATEINSVEQAKKIDSKESARPVYPFAAIVGQDEMKLCLLLNVIDPKIGGVMIMGDRGTGKSTTVRSLVDLLPEITVVSGDPYNSDPRDPECMGKEVREKVQKGEELSVIETKINMVDLPLGATEDRVCGTIDIEKALTEGVKAFEPGLLAKANRGILYVDEVNLLDDHLVDVLLDSAASGWNTVEREGISISHPARFILIGSGNPEEGELRPQLLDRFGMHAQVGTVRDAELRVKIVEERARFDSNPKEFRETYQEEQLKLQEQITTARSNLSAVQIDQDLKVKISKVCAELDVDGLRGDMVINRAARALAALQGRDQVTAEDVGIVIPNCLRHRLRKDPLESMDSGILVTEKFYEVFT
B6: 5′-adenylylsulfate reductase-3 (APR3) (protein, UniProt P92980 70-458)
chain: ASEVTEKLDVVEVEDFEELAKRLENASPLEIMDKALEKFGNDIAIAFSGAEDVALIEYAHLTGRPYRVFSLDTGRLNPETYRLFDTVEKHYGIRIEYMFPDAVEVQALVRNKGLFSFYEDGHQECCRIRKVRPLRRALKGLRAWITGQRKDQSPGTRSEIPVVQVDPVFEGLDGGVGSLVKWNPVANVEGNDVWNFLRTMDVPVNTLHAAGYVSIGCEPCTRAVLPGQHEREGRWWWEDAKAKECGLHKGNIKENTNGNATANVNGTASVADIFNSENVVNLSRQGIENLMKLENRKEAWIVVLYAPWCPFCQAMEASFDELADKLGGSGVKVAKFRADGDQKDFAKKELQLGSFPTILVFPKNSSRPIKYPSEKRDVDSLTSFLNLVR
B7: pentatricopeptide repeat (PPR) protein (6 or 7 repeats) (AT1G02150.1) (protein, UniProt Q8LPS6 1-524)
chain: MLLQAAVQNRNVPLASSASYSRLLRCRSPVVSVAALSKKTAAIVCSISQVYGYGTVDYERRPIVQWNAIYKKISLMEKPELGAASVLNQWEKAGRKLTKWELCRVVKELRKYKRANQALEVYDWMNNRGERFRLSASDAAIQLDLIGKVRGIPDAEEFFLQLPENFKDRRVYGSLLNAYVRAKSREKAEALLNTMRDKGYALHPLPFNVMMTLYMNLREYDKVDAMVFEMKQKDIRLDIYSYNIWLSSCGSLGSVEKMELVYQQMKSDVSIYPNWTTFSTMATMYIKMGETEKAEDALRKVEARITGRNRIPYHYLLSLYGSLGNKKELYRVWHVYKSVVPSIPNLGYHALVSSLVRMGDIEGAEKVYEEWLPVKSSYDPRIPNLLMNAYVKNDQLETAEGLFDHMVEMGGKPSSSTWEILAVGHTRKRCISEALTCLRNAFSAEGSSNWRPKVLMLSGFFKLCEEESDVTSKEAVLELLRQSGDLEDKSYLALIDVDENRTVNNSEIDAHETDALLTQLQDDL
B8: rpoC1 RNA polymerase (PEP) beta (protein, UniProt P56763 1-680)
chain: MIDRYKHQQLRIGLVSPQQISAWATKIIPNGEIVGEVTKPYTFHYKTNKPEKDGLFCERIFGPIKSGICACGNYRVIGDEKEDPKFCEQCGVEFVDSRIRRYQMGYIKLTCPVTHVWYLKRLPSYIANLLDKPLKELEGLVYCDFSFARPITKKPTFLRLRGSFEYEIQSWKYSIPLFFTTQGFDIFRNREISTGAGAIREQLADLDLRIIIENSLVEWKQLGEEGPTGNEWEDRKIVRRKDFLVRRMELAKHFIRTNIEPEWMVLCLLPVLPPELRPIIQIEGGKLMSSDINELYRRVIYRNNTLTDLLTTSRSTPGELVMCQEKLVQEAVDTLLDNGIRGQPMRDGHNKVYKSFSDVIEGKEGRFRETLLGKRVDYSGRSVIVVGPSLSLHRCGLPREIAIELFQTFVIRGLIRQHLASNIGVAKSQIREKKPIVWEILQEVMQGHPVLLNRAPTLHRLGIQSFQPILVEGRTICLHPLVCKGFNADFDGDQMAVHVPLSLEAQAEARLLMFSHMNLLSPAIGDPISVPTQDMLIGLYVLTSGTRRGICANRYNPCNRKNYQNERIYETNYKYTKEPFFCNSYDAIGAYRQKKINLDSPLWLRWQLDQRVIASREVPIEVHYESFGNYHEIYAHYLIVRSVKKENFCIYIRTTVGHISFYREIEEAIQGFSQACSYDT

target: T1, CLPC1-TRAP-STREPII (Arabidopsis thaliana); experiment: affinity purification with mass spectrometry; STREPII-tagged CLPC1-WT or CLPC1-TRAP from soluble leaf proteome of transgenic Arabidopsis rosettes, nondenaturing; StrepTactinXT beads, 50 mM Hepes-KOH pH 8.0, 15% glycerol, 10 mM MgCl2, 75 mM NaCl, eluted with 2.5 mM biotin; SDS-PAGE, in-gel trypsin digest, LC-MS/MS, spectral counting; three biological replicates; CGEP-STREP eluates as negative control

Row | binding | Binder
1 | binds | B1
2 | binds | B2
3 | binds | B3
4 | binds | B4
5 | binds | B5
6 | binds | B6
7 | binds | B7
8 | binds | B8
